Our source for the binding values is doi:10.1101/067827 (bioRxiv, 2016).

Experiment [1] deals with T1, GTSE1 (endogenous, mitotic U2OS cells) (human (endogenous in U2OS)) (UniProt Q9NYZ3).
T1 sequence: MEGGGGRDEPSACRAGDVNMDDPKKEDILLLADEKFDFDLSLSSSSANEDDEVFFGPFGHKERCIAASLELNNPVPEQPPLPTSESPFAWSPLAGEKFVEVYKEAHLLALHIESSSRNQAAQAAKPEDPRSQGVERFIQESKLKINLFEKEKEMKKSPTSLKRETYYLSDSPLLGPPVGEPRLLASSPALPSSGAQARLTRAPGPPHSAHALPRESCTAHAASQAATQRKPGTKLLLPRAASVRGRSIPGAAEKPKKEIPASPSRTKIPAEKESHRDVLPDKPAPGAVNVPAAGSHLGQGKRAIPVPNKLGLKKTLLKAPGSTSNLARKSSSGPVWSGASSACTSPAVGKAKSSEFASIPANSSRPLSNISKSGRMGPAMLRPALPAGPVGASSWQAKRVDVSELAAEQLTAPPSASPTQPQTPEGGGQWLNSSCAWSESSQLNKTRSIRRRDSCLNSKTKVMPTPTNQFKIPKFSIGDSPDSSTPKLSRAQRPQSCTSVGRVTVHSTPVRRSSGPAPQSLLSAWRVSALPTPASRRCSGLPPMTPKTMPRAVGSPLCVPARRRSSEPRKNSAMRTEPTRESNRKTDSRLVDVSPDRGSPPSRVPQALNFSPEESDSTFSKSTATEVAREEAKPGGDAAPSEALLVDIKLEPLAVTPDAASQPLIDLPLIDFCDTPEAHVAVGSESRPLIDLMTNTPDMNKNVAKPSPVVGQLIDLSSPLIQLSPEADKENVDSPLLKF
The experiment is described as follows: co-IP.

For experiment [2], the target named is T2, NFLAP-GTSE1 (BAC-expressed, GFP-tagged GTSE1) (human) (UniProt Q9NYZ3).
T2 sequence: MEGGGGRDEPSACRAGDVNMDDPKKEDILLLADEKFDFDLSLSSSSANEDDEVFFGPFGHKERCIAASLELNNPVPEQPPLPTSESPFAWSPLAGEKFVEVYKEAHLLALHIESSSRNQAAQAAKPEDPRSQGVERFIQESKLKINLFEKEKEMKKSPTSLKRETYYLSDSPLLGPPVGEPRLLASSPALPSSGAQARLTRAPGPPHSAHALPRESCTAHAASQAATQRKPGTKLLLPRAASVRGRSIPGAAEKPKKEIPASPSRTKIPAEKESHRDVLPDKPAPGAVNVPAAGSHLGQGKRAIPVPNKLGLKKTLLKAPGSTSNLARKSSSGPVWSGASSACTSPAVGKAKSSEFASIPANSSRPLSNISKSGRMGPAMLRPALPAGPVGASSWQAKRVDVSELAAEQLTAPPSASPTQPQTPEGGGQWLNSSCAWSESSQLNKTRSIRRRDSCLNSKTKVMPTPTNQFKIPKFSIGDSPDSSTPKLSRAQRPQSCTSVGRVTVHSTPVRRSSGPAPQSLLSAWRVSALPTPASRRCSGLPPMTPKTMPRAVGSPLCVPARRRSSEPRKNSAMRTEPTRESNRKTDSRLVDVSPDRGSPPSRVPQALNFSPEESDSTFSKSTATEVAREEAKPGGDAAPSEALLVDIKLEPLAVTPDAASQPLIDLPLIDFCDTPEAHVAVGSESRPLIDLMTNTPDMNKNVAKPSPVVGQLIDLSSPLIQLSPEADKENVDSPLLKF
In words: co-IP.

Experiment [3] concerns the target T3, GST-hGTSE1 1-460 (N-terminal fragment) (human) (UniProt Q9NYZ3).
T3 sequence: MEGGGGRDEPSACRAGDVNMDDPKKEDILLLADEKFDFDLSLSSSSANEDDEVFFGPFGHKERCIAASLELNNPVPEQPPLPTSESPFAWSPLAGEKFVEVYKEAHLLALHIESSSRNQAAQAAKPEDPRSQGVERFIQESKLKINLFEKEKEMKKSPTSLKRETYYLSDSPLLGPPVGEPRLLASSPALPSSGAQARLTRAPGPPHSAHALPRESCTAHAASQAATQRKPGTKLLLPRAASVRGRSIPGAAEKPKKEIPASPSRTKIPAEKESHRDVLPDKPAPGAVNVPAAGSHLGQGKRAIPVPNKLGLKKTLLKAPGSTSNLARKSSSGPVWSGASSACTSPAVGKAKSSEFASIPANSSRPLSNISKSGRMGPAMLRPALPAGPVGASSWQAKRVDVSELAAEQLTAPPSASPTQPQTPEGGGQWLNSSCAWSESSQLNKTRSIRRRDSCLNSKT
The experiment is described as follows: pull-down.

Experiment [4] addresses T4, GST-hGTSE1 463-739 (C-terminal fragment) (human) (UniProt Q9NYZ3).
T4 sequence: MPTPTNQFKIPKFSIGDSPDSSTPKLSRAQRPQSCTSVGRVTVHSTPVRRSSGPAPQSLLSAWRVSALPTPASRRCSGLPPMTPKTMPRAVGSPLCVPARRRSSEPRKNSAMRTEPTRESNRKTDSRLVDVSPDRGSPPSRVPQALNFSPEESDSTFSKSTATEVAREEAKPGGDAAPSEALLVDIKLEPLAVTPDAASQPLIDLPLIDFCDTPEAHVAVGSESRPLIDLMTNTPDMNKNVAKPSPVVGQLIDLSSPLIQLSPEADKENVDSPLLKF
The experiment is described as follows: pull-down.

Results are given in words; binding and its absence hold for the method and conditions named. For some of these results: In cells and extracts the contact can be indirect. Some binding calls cover weakened binding; strength is not graded here. For some of these results: Where a sequence is shown, tags or fusion partners need not be part of it.

B1: MCAK (endogenous, mitotic U2OS cells) (protein, UniProt Q99661 1-725)
chain: MAMDSSLQARLFPGLAIKIQRSNGLIHSANVRTVNLEKSCVSVEWAEGGATKGKEIDFDDVAAINPELLQLLPLHPKDNLPLQENVTIQKQKRRSVNSKIPAPKESLRSRSTRMSTVSELRITAQENDMEVELPAAANSRKQFSVPPAPTRPSCPAVAEIPLRMVSEEMEEQVHSIRGSSSANPVNSVRRKSCLVKEVEKMKNKREEKKAQNSEMRMKRAQEYDSSFPNWEFARMIKEFRATLECHPLTMTDPIEEHRICVCVRKRPLNKQELAKKEIDVISIPSKCLLLVHEPKLKVDLTKYLENQAFCFDFAFDETASNEVVYRFTARPLVQTIFEGGKATCFAYGQTGSGKTHTMGGDLSGKAQNASKGIYAMASRDVFLLKNQPCYRKLGLEVYVTFFEIYNGKLFDLLNKKAKLRVLEDGKQQVQVVGLQEHLVNSADDVIKMIDMGSACRTSGQTFANSNSSRSHACFQIILRAKGRMHGKFSLVDLAGNERGADTSSADRQTRMEGAEINKSLLALKECIRALGQNKAHTPFRESKLTQVLRDSFIGENSRTCMIATISPGISSCEYTLNTLRYADRVKELSPHSGPSGEQLIQMETEEMEACSNGALIPGNLSKEEEELSSQMSSFNEAMTQIRELEEKAMEELKEIIQQGPDWLELSEMTEQPDYDLETFVNKAESALAQQAKHFSALRDVIKALRLAMQLEEQASRQISSKKRPQ
Turning to B1, the binding result in experiment [1] and in experiment [2] was “binds” throughout.

B2: MCAK-His6 (purified full-length MCAK) (enzyme, UniProt Q99661 1-725, looked up)
chain: MAMDSSLQARLFPGLAIKIQRSNGLIHSANVRTVNLEKSCVSVEWAEGGATKGKEIDFDDVAAINPELLQLLPLHPKDNLPLQENVTIQKQKRRSVNSKIPAPKESLRSRSTRMSTVSELRITAQENDMEVELPAAANSRKQFSVPPAPTRPSCPAVAEIPLRMVSEEMEEQVHSIRGSSSANPVNSVRRKSCLVKEVEKMKNKREEKKAQNSEMRMKRAQEYDSSFPNWEFARMIKEFRATLECHPLTMTDPIEEHRICVCVRKRPLNKQELAKKEIDVISIPSKCLLLVHEPKLKVDLTKYLENQAFCFDFAFDETASNEVVYRFTARPLVQTIFEGGKATCFAYGQTGSGKTHTMGGDLSGKAQNASKGIYAMASRDVFLLKNQPCYRKLGLEVYVTFFEIYNGKLFDLLNKKAKLRVLEDGKQQVQVVGLQEHLVNSADDVIKMIDMGSACRTSGQTFANSNSSRSHACFQIILRAKGRMHGKFSLVDLAGNERGADTSSADRQTRMEGAEINKSLLALKECIRALGQNKAHTPFRESKLTQVLRDSFIGENSRTCMIATISPGISSCEYTLNTLRYADRVKELSPHSGPSGEQLIQMETEEMEACSNGALIPGNLSKEEEELSSQMSSFNEAMTQIRELEEKAMEELKEIIQQGPDWLELSEMTEQPDYDLETFVNKAESALAQQAKHFSALRDVIKALRLAMQLEEQASRQISSKKRPQ
Take B2: the binding entry in experiment [3] is listed as “binds”; in experiment [4], “no binding”.
